The record followed here is article PMC3276499.

Chains of the proteins cited; added tags and fusions are not shown. Residues count along the entry.
UniProt O00206, residues 24-839: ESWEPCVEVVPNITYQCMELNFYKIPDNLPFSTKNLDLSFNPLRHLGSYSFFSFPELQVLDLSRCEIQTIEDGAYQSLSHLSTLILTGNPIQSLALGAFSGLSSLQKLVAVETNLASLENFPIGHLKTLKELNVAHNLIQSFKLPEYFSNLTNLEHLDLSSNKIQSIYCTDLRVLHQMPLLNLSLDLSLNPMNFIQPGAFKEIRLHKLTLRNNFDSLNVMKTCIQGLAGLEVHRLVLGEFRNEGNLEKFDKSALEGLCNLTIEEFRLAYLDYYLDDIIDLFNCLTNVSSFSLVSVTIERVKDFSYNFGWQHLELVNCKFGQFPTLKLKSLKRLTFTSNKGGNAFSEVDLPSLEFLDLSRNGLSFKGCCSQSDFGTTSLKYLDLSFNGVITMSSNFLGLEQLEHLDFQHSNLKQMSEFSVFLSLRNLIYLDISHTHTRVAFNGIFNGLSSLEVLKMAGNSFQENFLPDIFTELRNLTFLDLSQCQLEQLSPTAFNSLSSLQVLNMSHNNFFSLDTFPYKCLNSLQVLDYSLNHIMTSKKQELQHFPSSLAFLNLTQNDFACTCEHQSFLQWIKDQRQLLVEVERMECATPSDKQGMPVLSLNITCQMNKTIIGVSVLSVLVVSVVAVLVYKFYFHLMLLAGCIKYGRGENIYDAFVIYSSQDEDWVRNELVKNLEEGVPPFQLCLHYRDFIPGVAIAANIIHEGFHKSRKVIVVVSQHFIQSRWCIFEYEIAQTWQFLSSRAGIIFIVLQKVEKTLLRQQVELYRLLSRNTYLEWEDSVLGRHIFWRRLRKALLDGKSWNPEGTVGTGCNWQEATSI

These are yes or no findings as the source states them, for the method shown. Binding seen in cells or lysates may run through a third protein. Some entries that bind do so weakly or less than the wild type.

For the assay, the target named is Toll-like receptor 4 (TLR4), the LPS receptor (human (endogenous in primary monocytes)) (UniProt O00206). As to the kind of experiment: FRET or BRET; acceptor photobleaching FRET between antibody labels on human monocytes treated with or without LPS (2 ng/ml, 15 min), fixed; donor Alexa-488 streptavidin on biotin anti-TLR4 HTA-125 mAb, acceptor Alexa-568 goat anti-mouse IgG on MEM148 or CBRM1/5 mAb; Leica TCS SP5 confocal …. For orientation: In BRET a luciferase serves as donor, and the signal depends on an acceptor being close.

Take “activated β2 integrin (CD18) (from UniProt P05107 23-769) (receptor)”: the binding entry is listed as “binds”.
